Measurements from patent US9827219B2, “Compositions and methods for lowering levels of high-sensitivity C-reactive protein (HS-CRP) in a subject” (priority 2012, dated 2017).

Experiment: Essential fatty acid parameters in plasma and RBC, AAMI pilot study (Example 1)
Type: in vivo, human
Settings: for AA LS mean, 1 g versus 4 g / AA LS mean, 2 g versus 4 g / DGLA LS mean, 1 g versus 4 g / DGLA LS mean, 2 g versus 4 g / DHA LS mean, 1 g versus 4 g / DHA LS mean, 2 g versus 4 g / DPAn-3 LS mean, 1 g versus 4 g / DPAn-3 LS mean, 2 g versus 4 g / EPA/AA LS mean, 1 g versus 4 g / EPA/AA LS mean, 2 g versus 4 g: ANCOVA

CC/C=C\C/C=C\C/C=C\C/C=C\C/C=C\CCCC(=O)OCC [AMR101, all-cis eicosa-5,8,11,14,17-pentaenoic acid ethyl ester]
AA LS mean, 1 g versus 4 g (RBC): 8.4 µg/g | AA LS mean, 2 g versus 4 g (RBC): 9.8 µg/g | DGLA LS mean, 1 g versus 4 g (RBC): 1.5 µg/g | DGLA LS mean, 2 g versus 4 g (RBC): 1.5 µg/g | DHA LS mean, 1 g versus 4 g (RBC): 1.0 µg/g | DHA LS mean, 2 g versus 4 g (RBC): 1.0 µg/g | DPAn-3 LS mean, 1 g versus 4 g (RBC): -6.2 µg/g | DPAn-3 LS mean, 2 g versus 4 g (RBC): -2.5 µg/g | EPA/AA LS mean, 1 g versus 4 g (RBC): −0.18 | EPA/AA LS mean, 2 g versus 4 g (RBC): −0.11 | AA mean change from baseline (RBC, Day 14, 1 g daily): −8.1 (21.95) μg/g | DGLA mean change from baseline (RBC, Day 14, 1 g daily): −2.7 (3.82) μg/g | DHA mean change from baseline (RBC, Day 14, 1 g daily): −4.6 (9.76) μg/g | DPAn-3 mean change from baseline (RBC, Day 14, 1 g daily): 0.9 (5.03) μg/g | EPA/AA mean change from baseline (RBC, Day 14, 1 g daily): 0.1 (0.04) | AA mean change from baseline (RBC, Day 14, 2 g daily): −3.1 (25.84) μg/g | DGLA mean change from baseline (RBC, Day 14, 2 g daily): −2.6 (3.54) μg/g | DHA mean change from baseline (RBC, Day 14, 2 g daily): −2.0 (9.46) μg/g | DPAn-3 mean change from baseline (RBC, Day 14, 2 g daily): 5.6 (6.28) μg/g | EPA/AA mean change from baseline (RBC, Day 14, 2 g daily): 0.2 (0.04) | AA mean change from baseline (RBC, Day 14, 4 g daily): −15.7 (26.76) μg/g | DGLA mean change from baseline (RBC, Day 14, 4 g daily): −5.3 (4.10) μg/g | DHA mean change from baseline (RBC, Day 14, 4 g daily): −6.9 (9.13) μg/g | DPAn-3 mean change from baseline (RBC, Day 14, 4 g daily): 5.4 (5.38) μg/g | EPA/AA mean change from baseline (RBC, Day 14, 4 g daily): 0.3 (0.07) | AA mean change from baseline (RBC, Day 28, 1 g daily): −17.0 (20.69) μg/g | DGLA mean change from baseline (RBC, Day 28, 1 g daily): −3.8 (3.31) μg/g | DHA mean change from baseline (RBC, Day 28, 1 g daily): −6.4 (11.57) μg/g | DPAn-3 mean change from baseline (RBC, Day 28, 1 g daily): 3.3 (5.42) μg/g | EPA/AA mean change from baseline (RBC, Day 28, 1 g daily): 0.1 (0.05) | AA mean change from baseline (RBC, Day 28, 2 g daily): −14.1 (26.89) μg/g | DGLA mean change from baseline (RBC, Day 28, 2 g daily): −4.5 (3.58) μg/g | DHA mean change from baseline (RBC, Day 28, 2 g daily): −6.2 (9.34) μg/g | DPAn-3 mean change from baseline (RBC, Day 28, 2 g daily): 9.4 (6.74) μg/g | EPA/AA mean change from baseline (RBC, Day 28, 2 g daily): 0.02 (0.06) | AA mean change from baseline (RBC, Day 28, 4 g daily): −22.8 (29.56) μg/g | DGLA mean change from baseline (RBC, Day 28, 4 g daily): −7.1 (4.63) μg/g | DHA mean change from baseline (RBC, Day 28, 4 g daily): −8.7 (11.63) μg/g | DPAn-3 mean change from baseline (RBC, Day 28, 4 g daily): 12.4 (6.98) μg/g | EPA/AA mean change from baseline (RBC, Day 28, 4 g daily): 0.4 (0.11) | AA mean change from baseline (RBC, Day 42, 1 g daily): −14.2 (27.69) μg/g | DGLA mean change from baseline (RBC, Day 42, 1 g daily): −3.5 (4.51) μg/g | DHA mean change from baseline (RBC, Day 42, 1 g daily): −7.0 (12.20) μg/g | DPAn-3 mean change from baseline (RBC, Day 42, 1 g daily): 6.5 (6.19) μg/g | EPA/AA mean change from baseline (RBC, Day 42, 1 g daily): 0.1 (0.06) | AA mean change from baseline (RBC, Day 42, 2 g daily): −18.8 (25.62) μg/g | DGLA mean change from baseline (RBC, Day 42, 2 g daily): −5.3 (3.65) μg/g | DHA mean change from baseline (RBC, Day 42, 2 g daily): −6.3 (9.42) μg/g | DPAn-3 mean change from baseline (RBC, Day 42, 2 g daily): 13.2 (7.23) μg/g | EPA/AA mean change from baseline (RBC, Day 42, 2 g daily): 0.3 (0.06) | AA mean change from baseline (RBC, Day 42, 4 g daily): −34.4 (31.44) μg/g | DGLA mean change from baseline (RBC, Day 42, 4 g daily): −8.0 (4.98) μg/g | DHA mean change from baseline (RBC, Day 42, 4 g daily): −13.8 (13.76) μg/g | DPAn-3 mean change from baseline (RBC, Day 42, 4 g daily): 16.2 (10.07) μg/g | EPA/AA mean change from baseline (RBC, Day 42, 4 g daily): 0.4 (0.14) | AA LS mean, 1 g versus 4 g (plasma): 4.2 µg/g | AA LS mean, 2 g versus 4 g (plasma): 15.6 µg/g | DGLA LS mean, 1 g versus 4 g (plasma): 3.7 µg/g | DGLA LS mean, 2 g versus 4 g (plasma): 2.5 µg/g | DHA LS mean, 1 g versus 4 g (plasma): -0.8 µg/g | DHA LS mean, 2 g versus 4 g (plasma): 1.5 µg/g | DPAn-3 LS mean, 1 g versus 4 g (plasma): -15.1 µg/g | DPAn-3 LS mean, 2 g versus 4 g (plasma): -9.5 µg/g | EPA/AA LS mean, 1 g versus 4 g (plasma): −0.66 | EPA/AA LS mean, 2 g versus 4 g (plasma): −0.41 | AA mean change from baseline (plasma, Day 14, 1 g daily): −9.7 (22.20) μg/g | DGLA mean change from baseline (plasma, Day 14, 1 g daily): −10.4 (10.90) μg/g | DHA mean change from baseline (plasma, Day 14, 1 g daily): −6.4 (13.30) μg/g | DPAn-3 mean change from baseline (plasma, Day 14, 1 g daily): 7.5 (5.11) μg/g | EPA/AA mean change from baseline (plasma, Day 14, 1 g daily): 0.3 (0.4) | AA mean change from baseline (plasma, Day 14, 2 g daily): −13.9 (22.13) μg/g | DGLA mean change from baseline (plasma, Day 14, 2 g daily): −14.1 (6.88) μg/g | DHA mean change from baseline (plasma, Day 14, 2 g daily): −5.4 (14.29) μg/g | DPAn-3 mean change from baseline (plasma, Day 14, 2 g daily): 17.4 (7.49) μg/g | EPA/AA mean change from baseline (plasma, Day 14, 2 g daily): 0.6 (0.23) | AA mean change from baseline (plasma, Day 14, 4 g daily): −27.2 (28.39) μg/g | DGLA mean change from baseline (plasma, Day 14, 4 g daily): −22.9 (9.00) μg/g | DHA mean change from baseline (plasma, Day 14, 4 g daily): −10.3 (13.35) μg/g | DPAn-3 mean change from baseline (plasma, Day 14, 4 g daily): 24.5 (11.28) μg/g | EPA/AA mean change from baseline (plasma, Day 14, 4 g daily): 1.1 (0.28) | AA mean change from baseline (plasma, Day 28, 1 g daily): −11.3 (28.13) μg/g | DGLA mean change from baseline (plasma, Day 28, 1 g daily): −10.6 (10.23) μg/g | DHA mean change from baseline (plasma, Day 28, 1 g daily): −6.6 (15.53) μg/g | DPAn-3 mean change from baseline (plasma, Day 28, 1 g daily): 8.9 (5.62) μg/g | EPA/AA mean change from baseline (plasma, Day 28, 1 g daily): 0.3 (0.20) | AA mean change from baseline (plasma, Day 28, 2 g daily): 21.6 (28.32) μg/g | DGLA mean change from baseline (plasma, Day 28, 2 g daily): −16.2 (9.88) μg/g | DHA mean change from baseline (plasma, Day 28, 2 g daily): −8.1 (15.82) μg/g | DPAn-3 mean change from baseline (plasma, Day 28, 2 g daily): 19.4 (8.48) μg/g | EPA/AA mean change from baseline (plasma, Day 28, 2 g daily): 0.8 (0.35) | AA mean change from baseline (plasma, Day 28, 4 g daily): −43.7 (32.24) μg/g | DGLA mean change from baseline (plasma, Day 28, 4 g daily): −24.2 (10.73) μg/g | DHA mean change from baseline (plasma, Day 28, 4 g daily): −13.5 (14.10) μg/g | DPAn-3 mean change from baseline (plasma, Day 28, 4 g daily): 29.7 (13.23) μg/g | EPA/AA mean change from baseline (plasma, Day 28, 4 g daily): 1.3 (0.42) | AA mean change from baseline (plasma, Day 42, 1 g daily): −8.7 (31.35) μg/g | DGLA mean change from baseline (plasma, Day 42, 1 g daily): −9.4 (9.41) μg/g | DHA mean change from baseline (plasma, Day 42, 1 g daily): −5.4 (18.17) μg/g | DPAn-3 mean change from baseline (plasma, Day 42, 1 g daily): 11.3 (6.61) μg/g | EPA/AA mean change from baseline (plasma, Day 42, 1 g daily): 0.3 (0.24) | AA mean change from baseline (plasma, Day 42, 2 g daily): −27.3 (26.76) μg/g | DGLA mean change from baseline (plasma, Day 42, 2 g daily): −17.3 (9.92) μg/g | DHA mean change from baseline (plasma, Day 42, 2 g daily): −6.0 (16.69) μg/g | DPAn-3 mean change from baseline (plasma, Day 42, 2 g daily): 19.3 (8.63) μg/g | EPA/AA mean change from baseline (plasma, Day 42, 2 g daily): 0.7 (0.29) | AA mean change from baseline (plasma, Day 42, 4 g daily): −48.3 (22.20) μg/g | DGLA mean change from baseline (plasma, Day 42, 4 g daily): −22.5 (10.87) μg/g | DHA mean change from baseline (plasma, Day 42, 4 g daily): −13.8 (15.31) μg/g | DPAn-3 mean change from baseline (plasma, Day 42, 4 g daily): 32.0 (16.01) μg/g | EPA/AA mean change from baseline (plasma, Day 42, 4 g daily): 1.3 (0.45)
